Some entries share one result that the patent states for a list of compounds.
The compounds below were run against T1, LRRK2 (Wt) and LRRK2 (G2019) (Homo sapiens, UniProt Q5S007) (assay: TR-FRET LanthaScreen Eu Kinase Binding Assay, LRRK2). Details: one value class stated for wt and G2019 LRRK2 together; 10 nM Kinase Tracer 236; read-out: IC50, inhibitory activity toward LRRK2 (Wt) and LRRK2 (G2019).
T1 construct: fused on or other part: GST tag, inferred from the Eu-Anti-GST antibody used for detection

Chains of the proteins cited; added tags and fusions are not shown. Lines headed by an entry give the natural chain unless they say otherwise; changes in a name come on top.
UniProt Q5S007: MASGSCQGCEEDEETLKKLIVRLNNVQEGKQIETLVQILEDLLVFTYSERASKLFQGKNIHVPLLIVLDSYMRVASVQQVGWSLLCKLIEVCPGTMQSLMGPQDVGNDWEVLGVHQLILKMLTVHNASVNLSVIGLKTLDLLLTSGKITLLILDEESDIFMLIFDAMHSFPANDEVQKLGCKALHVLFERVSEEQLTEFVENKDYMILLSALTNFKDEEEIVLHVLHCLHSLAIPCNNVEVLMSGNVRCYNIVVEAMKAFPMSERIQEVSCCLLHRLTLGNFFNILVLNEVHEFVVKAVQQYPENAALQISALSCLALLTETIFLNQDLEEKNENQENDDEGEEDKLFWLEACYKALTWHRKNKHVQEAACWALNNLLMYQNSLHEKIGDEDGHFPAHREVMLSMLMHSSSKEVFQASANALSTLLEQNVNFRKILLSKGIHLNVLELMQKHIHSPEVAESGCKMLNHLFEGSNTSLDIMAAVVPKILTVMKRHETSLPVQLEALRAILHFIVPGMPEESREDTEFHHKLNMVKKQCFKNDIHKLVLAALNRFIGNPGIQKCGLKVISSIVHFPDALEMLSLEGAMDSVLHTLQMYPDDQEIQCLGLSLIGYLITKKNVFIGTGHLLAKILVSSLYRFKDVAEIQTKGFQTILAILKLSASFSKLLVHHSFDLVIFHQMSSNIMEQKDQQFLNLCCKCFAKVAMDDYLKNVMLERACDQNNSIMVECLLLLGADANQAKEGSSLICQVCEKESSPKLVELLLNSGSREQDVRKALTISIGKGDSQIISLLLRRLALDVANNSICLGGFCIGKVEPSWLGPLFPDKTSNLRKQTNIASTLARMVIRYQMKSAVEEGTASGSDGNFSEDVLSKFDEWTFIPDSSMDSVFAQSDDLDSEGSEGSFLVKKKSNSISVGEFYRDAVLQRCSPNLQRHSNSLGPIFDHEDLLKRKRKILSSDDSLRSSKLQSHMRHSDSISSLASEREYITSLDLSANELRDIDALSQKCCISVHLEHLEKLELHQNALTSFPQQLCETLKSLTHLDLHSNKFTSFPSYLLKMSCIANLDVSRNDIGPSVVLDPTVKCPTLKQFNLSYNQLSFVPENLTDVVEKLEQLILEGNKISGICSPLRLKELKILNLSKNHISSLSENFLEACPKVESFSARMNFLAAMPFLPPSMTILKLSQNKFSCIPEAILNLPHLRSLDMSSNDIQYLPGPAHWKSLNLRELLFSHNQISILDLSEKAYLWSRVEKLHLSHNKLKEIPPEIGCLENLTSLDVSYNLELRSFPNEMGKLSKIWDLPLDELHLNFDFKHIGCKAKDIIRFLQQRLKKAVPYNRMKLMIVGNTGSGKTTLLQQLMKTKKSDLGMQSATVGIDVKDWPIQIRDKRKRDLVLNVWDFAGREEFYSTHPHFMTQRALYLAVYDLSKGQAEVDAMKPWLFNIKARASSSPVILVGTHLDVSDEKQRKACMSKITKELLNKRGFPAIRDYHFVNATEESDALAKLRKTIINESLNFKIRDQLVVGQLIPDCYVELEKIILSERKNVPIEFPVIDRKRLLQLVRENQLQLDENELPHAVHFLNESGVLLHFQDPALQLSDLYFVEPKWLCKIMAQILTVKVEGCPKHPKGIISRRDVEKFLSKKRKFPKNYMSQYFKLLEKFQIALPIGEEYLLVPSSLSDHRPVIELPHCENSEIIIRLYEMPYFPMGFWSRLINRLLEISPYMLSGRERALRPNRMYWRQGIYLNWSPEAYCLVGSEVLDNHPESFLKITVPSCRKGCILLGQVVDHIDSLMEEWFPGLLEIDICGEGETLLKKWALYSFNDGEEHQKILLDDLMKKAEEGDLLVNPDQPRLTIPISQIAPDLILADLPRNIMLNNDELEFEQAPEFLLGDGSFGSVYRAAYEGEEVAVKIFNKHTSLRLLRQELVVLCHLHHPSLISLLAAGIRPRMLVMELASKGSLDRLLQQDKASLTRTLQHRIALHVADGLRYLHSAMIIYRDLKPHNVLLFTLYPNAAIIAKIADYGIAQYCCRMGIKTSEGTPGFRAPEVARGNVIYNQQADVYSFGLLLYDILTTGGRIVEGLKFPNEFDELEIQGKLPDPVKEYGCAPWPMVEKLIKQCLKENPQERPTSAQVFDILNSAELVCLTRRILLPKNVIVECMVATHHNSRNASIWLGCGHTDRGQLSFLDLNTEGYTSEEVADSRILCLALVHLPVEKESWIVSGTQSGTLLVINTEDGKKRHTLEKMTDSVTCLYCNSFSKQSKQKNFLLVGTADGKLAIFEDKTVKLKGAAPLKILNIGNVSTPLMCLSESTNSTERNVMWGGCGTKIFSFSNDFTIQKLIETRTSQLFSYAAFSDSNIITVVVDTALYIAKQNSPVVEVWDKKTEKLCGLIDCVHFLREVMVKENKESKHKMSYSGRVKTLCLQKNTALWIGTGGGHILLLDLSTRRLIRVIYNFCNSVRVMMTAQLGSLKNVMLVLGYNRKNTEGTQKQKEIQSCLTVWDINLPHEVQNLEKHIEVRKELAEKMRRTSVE

SMILES | IC50 [nM]
Fc1cc2c(cc1OC1CCOCC1)N=C(c1c(F)cccc1F)Nc1c[nH]nc1-2 [Compound 220, 5-(2,6-difluorophenyl)-9-fluoro-8-((tetrahydro-2H-pyran-4-yl)oxy)-2,4-dihydrobenzo[d]pyrazolo[3,4-f][1,3]diazepine] | < 10
Fc1cc2c(cc1OC1CCOCC1)N=C(c1c(Cl)cccc1Cl)Nc1c[nH]nc1-2 [Compound 222, 5-(2,6-dichlorophenyl)-9-fluoro-8-((tetrahydro-2H-pyran-4-yl)oxy)-2,4-dihydrobenzo[d]pyrazolo[3,4-f][1,3]diazepine] | < 10
Fc1cc2c(cc1OC1CCOCC1)N=C(c1c(F)cccc1C(F)(F)F)Nc1c[nH]nc1-2 [Compound 223, 9-fluoro-5-(2-fluoro-6-(trifluoromethyl)phenyl)-8-((tetrahydro-2H-pyran-4-yl)oxy)-2,4-dihydrobenzo[d]pyrazolo[3,4-f][1,3]diazepine] | < 10
Fc1cc2c(cc1-c1cccnn1)N=C(c1c(F)cccc1F)Nc1c[nH]nc1-2 [Compound 225, 5-(2,6-difluorophenyl)-9-fluoro-8-(pyridazin-3-yl)-2,4-dihydrobenzo[d]pyrazolo[3,4-f][1,3]diazepine] | < 10
Fc1cc2c(cc1-c1ccnnc1)N=C(c1c(F)cccc1F)Nc1c[nH]nc1-2 [Compound 226, 5-(2,6-difluorophenyl)-9-fluoro-8-(pyridazin-4-yl)-2,4-dihydrobenzo[d]pyrazolo[3,4-f][1,3]diazepine] | < 10
Fc1cc2c(cc1-c1ccccc1)N=C(c1c(F)cccc1F)Nc1c[nH]nc1-2 [Compound 231, 5-(2,6-difluorophenyl)-9-fluoro-8-phenyl-2,4-dihydrobenzo[d]pyrazolo[3,4-f][1,3]diazepine] | < 10
CCC(C)Oc1cc2c(cc1F)-c1n[nH]cc1N=C(c1c(F)cccc1Cl)N2 (stereo not shown) [Compound 239, 8-(sec-butoxy)-5-(2-chloro-6-fluorophenyl)-9-fluoro-2,6-dihydrobenzo[d]pyrazolo[3,4-f][1,3]diazepine] | < 10
CC[C@H](C)Oc1cc2c(cc1F)-c1n[nH]cc1N=C(c1c(F)cccc1Cl)N2 [Compound 247, (S)-8-(sec-butoxy)-5-(2-chloro-6-fluorophenyl)-9-fluoro-2,6-dihydrobenzo[d]pyrazolo[3,4-f][1,3]diazepine] | < 10
CC[C@@H](C)Oc1cc2c(cc1F)-c1n[nH]cc1N=C(c1c(F)cccc1Cl)N2 [Compound 248, (R)-8-(sec-butoxy)-5-(2-chloro-6-fluorophenyl)-9-fluoro-2,6-dihydrobenzo[d]pyrazolo[3,4-f][1,3]diazepine] | < 10

The next lines start with the values.

IC50 [nM] | SMILES
< 10 | Fc1cc2c(cc1-c1cccnn1)N=C(c1c(F)cccc1Cl)Nc1c[nH]nc1-2 [Compound 228, 5-(2-chloro-6-fluorophenyl)-9-fluoro-8-(pyridazin-3-yl)-2,4-dihydrobenzo[d]pyrazolo[3,4-f][1,3]diazepine]
< 10 | Fc1ccccc1-c1ccc2c(c1)N=C(c1c(Cl)cccc1Cl)Nc1c[nH]nc1-2 [Compound 236, 5-(2,6-dichlorophenyl)-8-(2-fluorophenyl)-2,4-dihydrobenzo[d]pyrazolo[3,4-f][1,3]diazepine]
< 10 | Fc1ccc(-c2ccc3c(c2)N=C(c2c(F)cccc2F)Nc2c[nH]nc2-3)cc1 [Compound 237, 5-(2,6-difluorophenyl)-8-(4-fluorophenyl)-2,4-dihydrobenzo[d]pyrazolo[3,4-f][1,3]diazepine]
< 10 | Fc1ccc(-c2ccc3c(c2)N=C(c2c(F)cccc2Cl)Nc2c[nH]nc2-3)cc1 [Compound 238, 5-(2-chloro-6-fluorophenyl)-8-(4-fluorophenyl)-2,4-dihydrobenzo[d]pyrazolo[3,4-f][1,3]diazepine]
< 10 | Fc1cccc(-c2ccc3c(c2)N=C(c2c(F)cccc2F)Nc2c[nH]nc2-3)c1 [Compound 240, 5-(2,6-difluorophenyl)-8-(3-fluorophenyl)-2,4-dihydrobenzo[d]pyrazolo[3,4-f][1,3]diazepine]
< 10 | Fc1cccc(-c2ccc3c(c2)N=C(c2c(F)cccc2Cl)Nc2c[nH]nc2-3)c1 [Compound 241, 5-(2-chloro-6-fluorophenyl)-8-(3-fluorophenyl)-2,4-dihydrobenzo[d]pyrazolo[3,4-f][1,3]diazepine]
< 10 | Fc1ccc(-c2ccc3c(c2)N=C(c2c(Cl)cccc2Cl)Nc2c[nH]nc2-3)cc1 [Compound 242, 5-(2,6-dichlorophenyl)-8-(4-fluorophenyl)-2,4-dihydrobenzo[d]pyrazolo[3,4-f][1,3]diazepine]

— US20220380374A1, “1,4-DIHYDROBENZO[D]PYRAZOLO[3,4-F][1,3]DIAZEPINE DERIVATIVES AND RELATED COMPOUNDS AS LRRK2, NUAK1 AND/OR TYK2 KINASE MODULATORS FOR THE TREATMENT OF E.G. AUTOIMMUNE DISEASE” (Origenis GMBH, priority 2019, published 2022)
